No constants are given. Whether binding was seen depends on the method and setting. Binding seen in cells or lysates may run through a third protein. Some entries that bind do so weakly or less than the wild type.
Biological target: HA-tagged optineurin expressed in KB cells (UniProt Q96CV9)
Assay: co-IP; KB and KB/14.7K cells transfected with HA-tagged optineurin, 50 ng/mL TNF for 10 min (or left untreated); lysates on anti-HA agarose at 4°C overnight; Western blot

Protein sequences, listed by entry. Tags and fused reporters are not part of them.
UniProt Q96CV9: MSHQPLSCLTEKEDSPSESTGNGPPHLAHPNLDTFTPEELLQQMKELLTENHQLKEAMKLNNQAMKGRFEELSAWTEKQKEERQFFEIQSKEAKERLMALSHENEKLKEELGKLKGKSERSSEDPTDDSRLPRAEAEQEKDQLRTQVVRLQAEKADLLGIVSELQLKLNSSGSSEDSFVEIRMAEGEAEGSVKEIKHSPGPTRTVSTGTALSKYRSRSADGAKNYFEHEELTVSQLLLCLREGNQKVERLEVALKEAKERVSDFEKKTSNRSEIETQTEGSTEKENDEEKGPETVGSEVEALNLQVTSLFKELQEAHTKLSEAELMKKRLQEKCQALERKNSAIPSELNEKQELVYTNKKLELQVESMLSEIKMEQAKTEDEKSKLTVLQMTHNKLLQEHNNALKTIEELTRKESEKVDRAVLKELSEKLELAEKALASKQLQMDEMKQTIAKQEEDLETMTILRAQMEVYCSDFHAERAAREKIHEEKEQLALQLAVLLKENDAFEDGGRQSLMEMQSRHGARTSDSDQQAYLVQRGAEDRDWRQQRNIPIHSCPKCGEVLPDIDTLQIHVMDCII
UniProt Q13546: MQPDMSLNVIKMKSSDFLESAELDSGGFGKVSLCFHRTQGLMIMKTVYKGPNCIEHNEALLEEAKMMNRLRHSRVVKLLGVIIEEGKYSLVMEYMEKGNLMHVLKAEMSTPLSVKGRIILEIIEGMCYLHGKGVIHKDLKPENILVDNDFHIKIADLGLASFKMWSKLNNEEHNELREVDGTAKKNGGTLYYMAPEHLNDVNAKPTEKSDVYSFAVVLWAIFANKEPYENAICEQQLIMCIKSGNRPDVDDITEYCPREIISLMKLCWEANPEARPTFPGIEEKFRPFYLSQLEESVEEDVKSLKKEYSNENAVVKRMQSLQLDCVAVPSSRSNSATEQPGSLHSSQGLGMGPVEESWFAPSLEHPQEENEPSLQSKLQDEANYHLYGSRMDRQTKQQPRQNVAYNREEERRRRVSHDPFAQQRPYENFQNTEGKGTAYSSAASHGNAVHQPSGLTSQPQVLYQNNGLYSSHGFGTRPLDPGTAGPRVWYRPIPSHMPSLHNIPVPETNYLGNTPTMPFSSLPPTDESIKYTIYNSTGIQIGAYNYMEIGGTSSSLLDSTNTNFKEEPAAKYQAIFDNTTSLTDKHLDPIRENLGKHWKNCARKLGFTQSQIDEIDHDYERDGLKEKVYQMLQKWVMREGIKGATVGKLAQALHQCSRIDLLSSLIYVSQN

**Q.** How did the binding turn out when RIP1 (from UniProt Q13546 1-671) was run?
**A.** binds
